In the supplement of paper PMC10338343:
± gives the standard deviation. Only a part is listed here, and it is no random draw. Many of these values have a large error.

System: MILI (PIWIL2) piRISC loaded with Kctd7 piRNA (26 nt)
Assay: pre-steady-state target cleavage rate (min^-1); MIWI and MILI are mouse PIWI proteins and EfPiwi is from a freshwater sponge; tags in brackets are library labels; higher = faster piRNA-guided slicing of the target
Conditions: guide: Kctd7 piRNA 5'p-UGUUAAUCUCUCAGAGAAGGUGACAG; auxiliary factor: 500 nM mouse GTSF1
Summary of the method: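 A transcribed, DNA-blocked target RNA library […] was incubated at 33 °C for 0–8 or 0–960 min with 1 nM active affinity-purified piRISC carrying one synthetic guide, in HEPES–potassium acetate buffer with or without 500 nM GTSF1 partner protein. Uncleaved targets were then sequenced and normalised to depth and to weakly complementary targets. Data from three trials were pooled, with k3 capped at 0.0001 min^-1, and a burst-and-steady-state fit yielded the pre-steady-state cleavage rate.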
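Also: 1 nM active piRISC with 0.1 nM target library at 33 °C single turnover.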

| Sequence | pre-steady-state target cleavage rate |
| --- | --- |
| UAGUGUGUCACCUUGCUCUGAGAGAUUAACA | 0.248 ± 0.061 |
| UAGUGUGUCACCUUCUCUGAGACUAUAUGA | 0.000973 ± 0.011 |
| UAGUGUGUCACCUUGACUGAGAGAUUUUGA | 0.000453 ± 0.022 |
| UAGUGACAGUGGUUCACUGAGAGAUUUACA | 0.00052 ± 0.016 |
| UAGUGACAGUGGAAGAGAGACUCAUUAACA | 0.000415 ± 0.014 |
| UAGUGACACACCUUCUCUGACUCAUUAACA | 0.00121 ± 0.0076 |
| UAGUGAGUCACCUUCUCUGAGACUAUAAGA | 0.000707 ± 0.0094 |
| UAGUGACACACCUUCUCUGACAGAUAAACA | 0.00064 ± 0.012 |
| UAGUGACAGUGGAACUCUGAGAGAUUAACG [g2:g16:cont:t1G] | 0.000335 ± 0.019 |
| UAGUGACAGUGGUAGUCUGAGAGAUUAACA | 0.00082 ± 0.0057 |
| UAGUGACAGUGGAAGACUGACUCAUUAACA | 0.000173 ± 0.018 |
| UAGUGACAGACCUUCUCUGAGAGAAAUACA | 0.00144 ± 0.007 |
| UAGUGACAGUGCUUCUCUGAGAGAAAUACA | 0.000143 ± 0.057 |
| UAGUGACAGUGGAAGAGUCAGUGAUUAACA | 0.000117 ± 0.065 |
| UAGUGUGUCACCUUCUCUGAGAGUUAAACA | 0.146 ± 0.049 |
| UAGUGACUCACCUUCUCUGGAGAGAUUAACA | 0.00054 ± 0.014 |
| UAGUGACACACCUUCUCUGAGAGUAUAUGA | 0.00215 ± 0.0055 |
| UAGUCUGUCACCUUCUCUGAGUCAUUAAGA | 0.000704 ± 0.0075 |
| UAGUGACAGUGGUUCGUCUGAGAGAUUAACA | 0.000455 ± 0.0063 |
| UAGUGUGUCACCUUCUCUGAGAGAUUACCA | 0.197 ± 0.037 |
| UAGUGACACACCUUCUCUGAGAGUUUUACA | 0.00423 ± 0.0054 |
| UAGUGACUCACCUUCAGUGAGAGAUUAACA | 0.0471 ± 0.0078 |
| UAGUGACUCACCUUCUCUGUGAGAUUUUGA | 0.00255 ± 0.0043 |
| UAGUGACAGUGGUUCUCUGAGUAGAUUAACA | 0.00101 ± 0.0077 |

Shown as tab-separated lines: part of the list above.
Sequence	pre-steady-state target cleavage rate
UAGUGUGUCACCUUGCUCUGAGAGAUUAACA	0.248 ± 0.061
UAGUGUGUCACCUUCUCUGAGACUAUAUGA	0.000973 ± 0.011
UAGUGACAGUGGUUCACUGAGAGAUUUACA	0.00052 ± 0.016
UAGUGACAGUGGAAGAGAGACUCAUUAACA	0.000415 ± 0.014
UAGUGACACACCUUCUCUGACUCAUUAACA	0.00121 ± 0.0076
UAGUGAGUCACCUUCUCUGAGACUAUAAGA	0.000707 ± 0.0094
UAGUGACAGUGGUAGUCUGAGAGAUUAACA	0.00082 ± 0.0057
UAGUGACAGUGCUUCUCUGAGAGAAAUACA	0.000143 ± 0.057
UAGUGACAGUGGAAGAGUCAGUGAUUAACA	0.000117 ± 0.065
UAGUGUGUCACCUUCUCUGAGAGUUAAACA	0.146 ± 0.049
UAGUGACUCACCUUCUCUGGAGAGAUUAACA	0.00054 ± 0.014
UAGUGACACACCUUCUCUGAGAGUAUAUGA	0.00215 ± 0.0055
UAGUCUGUCACCUUCUCUGAGUCAUUAAGA	0.000704 ± 0.0075
UAGUGACAGUGGUUCGUCUGAGAGAUUAACA	0.000455 ± 0.0063
UAGUGUGUCACCUUCUCUGAGAGAUUACCA	0.197 ± 0.037
UAGUGACUCACCUUCAGUGAGAGAUUAACA	0.0471 ± 0.0078
UAGUGACUCACCUUCUCUGUGAGAUUUUGA	0.00255 ± 0.0043
UAGUGACAGUGGUUCUCUGAGUAGAUUAACA	0.00101 ± 0.0077

(further entries)

| Sequence | pre-steady-state target cleavage rate |
| --- | --- |
| UAGUGACAGACCUUCUCUGAGUGAUUAUCA | 0.000489 ± 0.027 |
| UAGUGACAGUCCUUCUCUGAAGAGAUUAACA | 0.000466 ± 0.0064 |
| UAGUGACACACCUUCUCUGACAGAAUAACA | 0.000845 ± 0.011 |
| UAGUGACAGACCUUCUCUCUGAGAUUAACA | 0.00227 ± 0.0043 |
| UAGUGUGUCACCUUCUGUGUGAGAUUAACA | 0.0302 ± 0.004 |
| UAGUGACAGUGGAAGAGAGAGAGAUAUUCA | 0.00053 ± 0.015 |
| UAGUGACAGUGGAAGAGUGACACAUUAACA | 0.000348 ± 0.014 |
| UAGUCUGUCACCUUCUCUGUCUGAUUAACA | 0.00223 ± 0.0042 |
| UAGUGACAGUGCUUCUCAGUGAGAUUAACA | 0.00265 ± 0.0032 |
| UAGUGACAGACGUUCUCUGAGAGAUUUUGA | 0.00055 ± 0.018 |
| UAGUGACAGUGGAAGUCUGAGAGAUAUAACA | 0.000129 ± 0.022 |
| UAGUGACUCAGCUUGUCUGAGAGAUUAACA | 0.112 ± 0.0088 |
| UAGUGACAGUGGAACUCUGACUCUAAUUGA [g11:g16:cont:t1A] | 0.00476 ± 0.0086 |
| UAGUGACAGUGGAAGUCCUGAGAGAUUAACA | 0.000109 ± 0.029 |
| UAGUGAGUCAGGUUCUCUGAGAGAUAUUGA | 0.000844 ± 0.0098 |
| UAGUGUGUCACCUUCUCUGAGAGAUUAAA | 0.234 ± 0.064 |
| UAGUGACACAACCUUCUCUGAGAGAUUAACA | 0.155 ± 0.018 |
| UAGUGACUCACCUUCUCUGAGUAGAUUAACA | 0.00176 ± 0.0059 |
| UAGUGACAGACCUUCUCUGAGACAUUUACA | 0.000892 ± 0.0089 |
| UAGUGAGUCACCUUCUCUGACAGAUAAACA | 0.00183 ± 0.0087 |
| UAGUGUGUGACCUUCUCUGAGAGAUAUUGA | 0.00155 ± 0.007 |
| UAGUGACACACCUUCUCUCAGAGAUUAUGA | 0.00858 ± 0.0045 |
| UAGUGACAGUCCUUCUGACAGAGAUUAACA | 0.000607 ± 0.0087 |
| UAGUGACACACCUUCUCUGAGACUAUAAGA | 0.000357 ± 0.017 |

| Sequence | pre-steady-state target cleavage rate |
| --- | --- |
| UAGUGACAGACCUUCUCUCAGAGAUUAAGA | 0.00122 ± 0.012 |
| UAGUGAGUGUGCUUCUCUGAGAGAUUUUGA | 0.000479 ± 0.014 |
| UAGUGACAGACCUUCUGACAGAGAUUAUGA | 0.000113 ± 0.072 |
| UAGUGACAGACCUUCUCUGAGAGAUUUUGA | 0.0009 ± 0.012 |
| UAGUGACAGUCCAUCUCUGAGAGAUUAAGA | 0.0017 ± 0.0047 |
| UAGUGACAGACCUUCUCUGAGAGAUUCAACA | 0.177 ± 0.04 |
| UAGUGACACAGGAUCUCUGAGAGAUUAUGA | 0.000214 ± 0.014 |
| UAGUCUGUCACCUUCUCUGAGAGAUUCAACA | 0.324 ± 0.061 |
| UAGUGAGUCACCUGCUCUGAGAGAUUAACA | 0.169 ± 0.018 |
| UAGUGACAGUGCUACUCUGAGAGAUUUACA | 0.00147 ± 0.0052 |
| UAGUGACAGUGGUUCUCUGAGAUGAUUAACA | 0.00146 ± 0.0035 |
| UAGUGACUCACCUUCUCUCUCAGAUUAAGA | 0.000676 ± 0.011 |
| UAGUGACAGUGGAAGAGACACAGAUUAAGA | 0.000145 ± 0.052 |
| UAGUGACAGUGGUUCUGUGAGAGAUUAAGA | 0.000418 ± 0.018 |
| UAGUGACACAGGUUCUCUGAGAGAUUAUGA | 0.00299 ± 0.0035 |
| UAGUGUGUCACCUUCUCUGUGACAUUAACA | 0.00266 ± 0.0049 |
| UAGUGUGUCACCUUCUCUGAGAGAGUUAACA | 0.259 ± 0.046 |
| UAGUGACACACCUUCUCUGAGAGAUUAUGA | 0.0394 ± 0.012 |
| UAGUGACAGUGGAAGAGAGAGAGAUCUAACA | 0.000133 ± 0.025 |
| UAGUGACAGACCUUCUCUGUAGAGAUUAACA | 0.00145 ± 0.0066 |
| UAGUGUGUCUGGUUCUCUGAGAGAUUAAGA | 0.00173 ± 0.0057 |
| UAGUGAGUCACCUUCUCUGACUCUAAUUGA [g11:g24:cont:t1A] | 0.000626 ± 0.016 |
| UAGUGACAGUGCUACUCUGAGUGAUUAACA | 0.00187 ± 0.0022 |

Two entries from above, bar-delimited:
Sequence | pre-steady-state target cleavage rate
UAGUGACAGACCUUCUCUGAGAGAUUUUGA | 0.0009 ± 0.012
UAGUGACAGACCUUCUCUGAGAGAUUCAACA | 0.177 ± 0.04
